In patent US20260022160A1 (AFFYXELL THERAPEUTICS, published 2026) one finds binding data, which are given here for 33 molecules.

To fix the notation:
B1: stefin A protein variant clone 345 (designed binder)
chain: MIPGGLSEAKPATPEIQEIVDKVKPQLEEKTGETYGKLEAVQYKTQVVEHHSQPLAHGTNYYIKVRAGDNKYMHLKVFKSLPYHAFDWYWEDLVLTGYQVDKNKDDELTGF
B2: stefin A protein variant clone 342 (designed binder)
chain: MIPGGLSEAKPATPEIQEIVDKVKPQLEEKTGETYGKLEAVQYKTQVVQWIKWGNILGTNYYIKVRAGDNKYMHLKVFKSLYEAIERWHGEDLVLTGYQVDKNKDDELTGF
B3: stefin A protein variant clone 332 (designed binder)
chain: MIPGGLSEAKPATPEIQEIVDKVKPQLEEKTGETYGKLEAVQYKTQVVLEDVWGVWAGTNYYIKVRAGDNKYMHLKVFKSLEFQHRTFNHEDLVLTGYQVDKNKDDELTGF
B4: stefin A protein variant clone 339 (designed binder)
chain: MIPGGLSEAKPATPEIQEIVDKVKPQLEEKTGETYGKLEAVQYKTQVVRVFDTPLAAGTNYYIKVRAGDNKYMHLKVFKSLPWQYRNNPEEDLVLTGYQVDKNKDDELTGF
B5: stefin A protein variant clone 234 (designed binder)
chain: MIPGGLSEAKPATPEIQEIVDKVKPQLEEKTGETYGKLEAVQYKTQVDAGTNYYIKVRAGDNKYMHLKVFKSLYFYRHWEDREDLVLTGYQVDKNKDDELTGF
B6: stefin A protein variant clone 340 (designed binder)
chain: MIPGGLSEAKPATPEIQEIVDKVKPQLEEKTGETYGKLEAVQYKTQVVWWDIPWIWVGTNYYIKVRAGDNKYMHLKVFKSLQNDELYPYKEDLVLTGYQVDKNKDDELTGF
B7: stefin A protein variant clone 331 (designed binder)
chain: MIPGGLSEAKPATPEIQEIVDKVKPQLEEKTGETYGKLEAVQYKTQVVLDQHHVYQVGTNYYIKVRAGDNKYMHLKVFKSLALLIHHDPWEDLVLTGYQVDKNKDDELTGF
B8: stefin A protein variant clone 335 (designed binder)
chain: MIPGGLSEAKPATPEIQEIVDKVKPQLEEKTGETYGKLEAVQYKTQVVLFEVLQGSSGTNYYIKVRAGDNKYMHLKVFKSLGEIVWYQVEEDLVLTGYQVDKNKDDELTGF
B9: stefin A protein variant clone 333 (designed binder)
chain: MIPGGLSEAKPATPEIQEIVDKVKPQLEEKTGETYGKLEAVQYKTQVVWLPWTVELIGTNYYIKVRAGDNKYMHLKVFKSLGEIWSAKHKEDLVLTGYQVDKNKDDELTGF
B10: stefin A protein variant clone 341 (designed binder)
chain: MIPGGLSEAKPATPEIQEIVDKVKPQLEEKTGETYGKLEAVQYKTQVVYQKVITWWQGTNYYIKVRAGDNKYMHLKVFKSLYWENHRGHVEDLVLTGYQVDKNKDDELTGF
B11: stefin A protein variant clone 229 (designed binder)
chain: B10 chain with Y49Q, Q50Y, V52I, Q57S, Y82V, W83Y, E84K, H86K, H89G, V90H
B12: stefin A protein variant clone 231 (designed binder)
chain: MIPGGLSEAKPATPEIQEIVDKVKPQLEEKTGETYGKLEAVQYKTQVVYYQIITWWQGTNYYIKVRAGDNKYMHLKVFKSLGIRKKQQQREDLVLTGYQVDKNKDDELTGF
B13: stefin A protein variant clone 343 (designed binder)
chain: MIPGGLSEAKPATPEIQEIVDKVKPQLEEKTGETYGKLEAVQYKTQVVATPEKKYVVGTNYYIKVRAGDNKYMHLKVFKSLWNANILRYWEDLVLTGYQVDKNKDDELTGF
B14: stefin A protein variant clone 348 (designed binder)
chain: MIPGGLSEAKPATPEIQEIVDKVKPQLEEKTGETYGKLEAVQYKTQVVGKTWHKHNRGTNYYIKVRAGDNKYMHLKVFKSLNLYFFFYQTEDLVLTGYQVDKNKDDELTGF
B15: stefin A protein variant clone 237 (designed binder)
chain: MIPGGLSEAKPATPEIQEIVDKVKPQLEEKTGETYGKLEAVQYKTQVVVYRIVSWWRGTNYYIKVRAGDNKYMHLKVFKSLASDIYLRIDEDLVLTGYQVDKNKDDELTGF
B16: stefin A protein variant clone 230 (designed binder)
chain: MIPGGLSEAKPATPEIQEIVDKVKPQLEEKTGETYGKLEAVQYKTQVVHYYVHYNDQGTNYYIKVRAGDNKYMHLKVFKSLWGENLFAKWEDLVLTGYQVDKNKDDELTGF
B17: stefin A protein variant clone 334 (designed binder)
chain: MIPGGLSEAKPATPEIQEIVDKVKPQLEEKTGETYGKLEAVKYKTQVVQHFTWDWFWGTNYYIKVRAGDNKYMHLKVFKSLPEYKPVDHTEDLVLTGYQVDKNKDDELTGF
B18: stefin A protein variant clone 338 (designed binder)
chain: MIPGGLSEAKPATPEIQEIVDKVKPQLEEKTGETYGKLEAVQYKTQVVSYDPVYQDTGTNYYIKVRAGDNKYMHLKVFKSLFFHRTSVVYEDLVLTGYQVDKNKDDELTGF
B19: stefin A protein variant clone 233 (designed binder)
chain: MIPGGLSEAKPATPEIQEIVDKVKPQLEEKTGETYGKLEAVQYKTQVVLQDQWPWRDGTNYYIKVRAGDNKYMHLKVFKSLTYGKKWYSWEDLVLTGYQVDKNKDDELTGF
B20: stefin A protein variant clone 228 (designed binder)
chain: MIPGGLSEAKPATPEIQEIVDKVKPQLEEKTGETYGKLEAVQYKTQVVPFKIITVWHGTNYYIKVRAGDNKYMHLKVFKSLLERFNFHGEEDLVLTGYQVDKNKDDELTGF
B21: stefin A protein variant clone 238 (designed binder)
chain: MIPGGLSEAKPATPEIQEIVDKVKPQLEEKTGETYGKLEAVQYKTQVVYYRQLKFNTGTNYYIKVRAGDNKYMHLKVFKSLFLHRKPQDREDLVLTGYQVDKNKDDELTGF
B22: stefin A protein variant clone 330 (designed binder)
chain: MIPGGLSEAKPATPEIQEIVDKVKPQLEEKTGETYGKLEAVQYKTQVVKTWEDTVVAGTNYYIKVRAGDNKYMHLKVFKSLEYLYRPLNPEDLVLTGYQVDKNKDDELTGF
B23: stefin A protein variant clone 232 (designed binder)
chain: MIPGGLSEAKPATPEIQEIVDKVKPQLEEKTGETYGKLEAVQYKTQVVVHGPHLEQAGTNYYIKVRAGDNKYMHLKVFKSLGHAFYFAFVEDLVLTGYQVDKNKDDELTGF
B24: stefin A protein variant clone 336 (designed binder)
chain: MIPGGLSEAKPATPEIQEIVDKVKPQLEEKTGETYGKLEAVQYKTQVVPYSWQHEVVGTNYYIKVRAGDNKYMHLKVFKSLIVFYLQEYYEEDLVLTGYQVDKNKDDELTGF
B25: stefin A protein variant clone 236 (designed binder)
chain: MIPGGLSEAKPATPEIQEIVDKVKPQLEEKTGETYGKLEAVQYKTQVVNSLGVSEWVGTNYYIKVRAGDNKYMHLKVFKSLPYWYRKNNLEDLVLTGYQVDKNKDDELTGF
B26: stefin A protein variant clone 347 (designed binder)
chain: MIPGGLSEAKPATPEIQEIVDKVKPQLEEKTGETYGKLEAVQYKTQVVSFQREHYSWGTNYYIKVRAGDNKYMHLKVFKSLFDIFYFNPIEDLVLTGYQVDKNKDDELTGF
B27: stefin A protein variant clone 329 (designed binder)
chain: MIPGGLSEAKPATPEIQEIVDKVKPQLEEKTGETYGKLEAVQYKTQVVGWIQRHNLIGTNYYIKVRAGDNKYMHLKVFKSLYSEPPPVQNEDLVLTGYQVDKNKDDELTGF
B28: stefin A protein variant clone 344 (designed binder)
chain: MIPGGLSEAKPATPEIQEIVDKVKPQLEEKTGETYGKLEAVQYKTQVVTSERLWILYGTNYYIKVRAGDNKYMHLKVFKSLTPRYVPLNPEDLVLTGYQVDKNKDDELTGF
B29: stefin A protein variant clone 337 (designed binder)
chain: MIPGGLSEAKPATPEIQEIVDKVKPQLEEKTGETYGKLEAVQYKTQVVWWQENAEWIGTNYYIKVRAGDNKYMHLKVFKSLGYAVFHKYLEDLVLTGYQVDKNKDDELTGF
B30: stefin A protein variant clone 227 (designed binder)
chain: MIPGGLSEAKPATPEIQEIVDKVKPQLEEKTGETYGKLEAVQYKTQVVHDVFYDQKAGTNYYIKVRAGDNKYMHLKVFKSLKWWYRIGNPEDLVLTGYQVDKNKDDELTGF
B31: stefin A protein variant clone 235 (designed binder)
chain: MIPGGLSEAKPATPEIQEIVDKVKPQLEEKTGETYGKLEAVQYKTQVVSWVKPDNELGTNYYIKVRAGDNKYMHLKVFKSLWQVHDKQWLEDLVLTGYQVDKNKDDELTGF
B32: stefin A protein variant clone 239 (designed binder)
chain: B31 chain with S49G, V51I, P53V, E56V, V84D, D86H, K87N, Q88V, W89K, L90R
B33: stefin A protein variant clone 346 (designed binder)
chain: MIPGGLSEAKPATPEIQEIVDKVKPQLEEKTGETYGKLEAVQYKTQVVWTADWLWTVGTNYYIKVRAGDNKYMHLKVFKSLYDPSEWFPREDLVLTGYQVDKNKDDELTGF

Residue numbers refer to the chain shown, from its start. Results are given in words; binding and its absence hold for the method and conditions named. Some entries that bind do so weakly or less than the wild type.

For this assay, the target named is T1, human CD40L (human, UniProt P29965 113-261, limits assumed).
T1 sequence (looked up): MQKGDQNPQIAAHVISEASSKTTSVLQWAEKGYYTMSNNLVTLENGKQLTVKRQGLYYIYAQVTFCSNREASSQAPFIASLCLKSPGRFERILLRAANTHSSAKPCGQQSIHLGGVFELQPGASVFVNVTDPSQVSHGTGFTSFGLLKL
Briefly: ELISA, bacterial lysate on plate-bound human CD40L, anti-Myc tag detection. (An ELISA detects its analyte on a solid surface through an enzyme-linked reagent.)
On to B1, for which the binding result was “binds”.
In the case of B2 it was “binds”; in that of B3, “binds”.
For the molecule B4, the binding entry was “binds”.
Take B5: the binding entry is “binds”.
In the case of B6 it was “binds”.
With B7, the binding entry is given as “binds”.
To B8 belongs “binds”; to B9, “binds”.
To B10 belongs “binds”; to B11, “binds”; to B12, “binds”.
To B13 belongs “binds”; to B14, “binds”.
With B15, the binding result was “binds”.
In the case of B16 it was “binds”; in that of B17, “binds”; in that of B18, “binds”.
In the case of B19 it was “binds”.
For the molecule B20, the binding result is “binds”.
In the case of B21 it was “binds”.
Consider B22, for which the binding entry is “binds”.
To B23 belongs “binds”; to B24, “binds”; to B25, “binds”.
To B26 belongs “binds”; to B27, “binds”; to B28, “binds”.
In the case of B29 it was “binds”.
For the molecule B30, the binding result was “binds”.
To B31 belongs “binds”; to B32, “binds”.
In the case of B33 it was “binds”.
